No constants are given. Whether binding was seen depends on the method and setting. In cells and extracts the contact can be indirect. Some entries that bind do so weakly or less than the wild type.
Molecular target: FLAG-tagged MyD88 (UniProt Q99836)
Test: co-immunoprecipitation from co-transfected 293T cells: anti-FLAG IP, anti-myc immunoblot

Sequences of proteins named here, by UniProt entry; tags and fusion partners are left off. A change or cut given only in a name is not applied to a line headed by its entry. A line that says so, or that is headed by a name, gives the form on record, which may keep a tag or linker.
UniProt Q99836: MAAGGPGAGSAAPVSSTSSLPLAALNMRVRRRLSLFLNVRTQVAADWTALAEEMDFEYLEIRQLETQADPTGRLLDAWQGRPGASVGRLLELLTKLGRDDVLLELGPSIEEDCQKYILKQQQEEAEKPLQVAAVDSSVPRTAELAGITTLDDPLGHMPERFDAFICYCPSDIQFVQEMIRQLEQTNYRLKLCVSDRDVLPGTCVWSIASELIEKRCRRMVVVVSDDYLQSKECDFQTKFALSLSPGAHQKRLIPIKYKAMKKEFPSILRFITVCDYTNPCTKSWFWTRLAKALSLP
UniProt P51617: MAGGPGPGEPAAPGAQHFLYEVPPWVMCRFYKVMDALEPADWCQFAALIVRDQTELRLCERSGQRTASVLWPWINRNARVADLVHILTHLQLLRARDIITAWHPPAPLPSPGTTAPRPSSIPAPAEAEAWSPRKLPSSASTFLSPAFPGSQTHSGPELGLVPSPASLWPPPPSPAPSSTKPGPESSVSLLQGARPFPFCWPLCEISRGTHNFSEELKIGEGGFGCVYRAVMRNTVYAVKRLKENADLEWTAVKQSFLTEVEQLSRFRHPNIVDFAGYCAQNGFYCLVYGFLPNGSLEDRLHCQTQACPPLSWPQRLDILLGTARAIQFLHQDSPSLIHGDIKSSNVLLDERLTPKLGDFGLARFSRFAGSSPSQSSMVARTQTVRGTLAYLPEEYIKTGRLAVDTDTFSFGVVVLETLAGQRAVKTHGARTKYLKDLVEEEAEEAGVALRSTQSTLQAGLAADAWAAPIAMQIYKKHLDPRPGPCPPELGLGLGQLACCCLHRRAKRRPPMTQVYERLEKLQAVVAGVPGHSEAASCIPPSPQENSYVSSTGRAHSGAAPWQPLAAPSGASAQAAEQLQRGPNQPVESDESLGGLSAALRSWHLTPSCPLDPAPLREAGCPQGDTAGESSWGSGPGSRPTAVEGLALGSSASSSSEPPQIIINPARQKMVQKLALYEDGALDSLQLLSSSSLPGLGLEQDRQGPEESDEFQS
myc-IRAK1-KD (P51617, form named): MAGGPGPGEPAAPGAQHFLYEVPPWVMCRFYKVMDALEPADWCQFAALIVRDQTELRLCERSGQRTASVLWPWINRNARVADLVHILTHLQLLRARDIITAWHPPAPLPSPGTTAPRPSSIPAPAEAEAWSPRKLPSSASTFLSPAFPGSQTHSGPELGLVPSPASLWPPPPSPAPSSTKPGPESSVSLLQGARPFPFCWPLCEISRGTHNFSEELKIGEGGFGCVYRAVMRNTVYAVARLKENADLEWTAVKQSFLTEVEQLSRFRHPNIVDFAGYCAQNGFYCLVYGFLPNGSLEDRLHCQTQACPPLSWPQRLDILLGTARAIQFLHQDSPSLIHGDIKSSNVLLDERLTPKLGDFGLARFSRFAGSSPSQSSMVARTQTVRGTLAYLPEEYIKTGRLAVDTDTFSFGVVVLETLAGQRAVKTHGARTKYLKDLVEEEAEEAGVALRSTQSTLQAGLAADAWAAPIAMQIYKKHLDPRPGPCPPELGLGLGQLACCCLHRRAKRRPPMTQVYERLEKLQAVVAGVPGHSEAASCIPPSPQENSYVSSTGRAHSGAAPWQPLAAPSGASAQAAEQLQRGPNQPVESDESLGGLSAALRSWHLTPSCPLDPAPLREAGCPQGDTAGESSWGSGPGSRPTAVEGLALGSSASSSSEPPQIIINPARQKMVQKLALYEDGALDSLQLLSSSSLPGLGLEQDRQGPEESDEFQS

Row | Substance | binding
1 | myc-IRAK1-KD (from UniProt P51617 1-712) (enzyme) | binds
2 | myc-IRAK1 (from UniProt P51617 1-712) (enzyme) | binds
